According to the supplement of paper PMC10849652:
The list shows a part of the results.

The chains behind the UniProt entries cited, without tags or fusion partners. Where a name states a change or a piece, a line headed by the entry shows the natural chain unless it says otherwise.
UniProt O14817: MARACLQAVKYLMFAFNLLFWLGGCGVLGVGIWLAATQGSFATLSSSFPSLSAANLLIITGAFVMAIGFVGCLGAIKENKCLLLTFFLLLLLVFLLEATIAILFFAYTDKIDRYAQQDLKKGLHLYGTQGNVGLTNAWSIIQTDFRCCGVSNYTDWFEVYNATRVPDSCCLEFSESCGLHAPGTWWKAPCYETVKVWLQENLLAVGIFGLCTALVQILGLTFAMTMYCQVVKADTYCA
UniProt Q96AY4: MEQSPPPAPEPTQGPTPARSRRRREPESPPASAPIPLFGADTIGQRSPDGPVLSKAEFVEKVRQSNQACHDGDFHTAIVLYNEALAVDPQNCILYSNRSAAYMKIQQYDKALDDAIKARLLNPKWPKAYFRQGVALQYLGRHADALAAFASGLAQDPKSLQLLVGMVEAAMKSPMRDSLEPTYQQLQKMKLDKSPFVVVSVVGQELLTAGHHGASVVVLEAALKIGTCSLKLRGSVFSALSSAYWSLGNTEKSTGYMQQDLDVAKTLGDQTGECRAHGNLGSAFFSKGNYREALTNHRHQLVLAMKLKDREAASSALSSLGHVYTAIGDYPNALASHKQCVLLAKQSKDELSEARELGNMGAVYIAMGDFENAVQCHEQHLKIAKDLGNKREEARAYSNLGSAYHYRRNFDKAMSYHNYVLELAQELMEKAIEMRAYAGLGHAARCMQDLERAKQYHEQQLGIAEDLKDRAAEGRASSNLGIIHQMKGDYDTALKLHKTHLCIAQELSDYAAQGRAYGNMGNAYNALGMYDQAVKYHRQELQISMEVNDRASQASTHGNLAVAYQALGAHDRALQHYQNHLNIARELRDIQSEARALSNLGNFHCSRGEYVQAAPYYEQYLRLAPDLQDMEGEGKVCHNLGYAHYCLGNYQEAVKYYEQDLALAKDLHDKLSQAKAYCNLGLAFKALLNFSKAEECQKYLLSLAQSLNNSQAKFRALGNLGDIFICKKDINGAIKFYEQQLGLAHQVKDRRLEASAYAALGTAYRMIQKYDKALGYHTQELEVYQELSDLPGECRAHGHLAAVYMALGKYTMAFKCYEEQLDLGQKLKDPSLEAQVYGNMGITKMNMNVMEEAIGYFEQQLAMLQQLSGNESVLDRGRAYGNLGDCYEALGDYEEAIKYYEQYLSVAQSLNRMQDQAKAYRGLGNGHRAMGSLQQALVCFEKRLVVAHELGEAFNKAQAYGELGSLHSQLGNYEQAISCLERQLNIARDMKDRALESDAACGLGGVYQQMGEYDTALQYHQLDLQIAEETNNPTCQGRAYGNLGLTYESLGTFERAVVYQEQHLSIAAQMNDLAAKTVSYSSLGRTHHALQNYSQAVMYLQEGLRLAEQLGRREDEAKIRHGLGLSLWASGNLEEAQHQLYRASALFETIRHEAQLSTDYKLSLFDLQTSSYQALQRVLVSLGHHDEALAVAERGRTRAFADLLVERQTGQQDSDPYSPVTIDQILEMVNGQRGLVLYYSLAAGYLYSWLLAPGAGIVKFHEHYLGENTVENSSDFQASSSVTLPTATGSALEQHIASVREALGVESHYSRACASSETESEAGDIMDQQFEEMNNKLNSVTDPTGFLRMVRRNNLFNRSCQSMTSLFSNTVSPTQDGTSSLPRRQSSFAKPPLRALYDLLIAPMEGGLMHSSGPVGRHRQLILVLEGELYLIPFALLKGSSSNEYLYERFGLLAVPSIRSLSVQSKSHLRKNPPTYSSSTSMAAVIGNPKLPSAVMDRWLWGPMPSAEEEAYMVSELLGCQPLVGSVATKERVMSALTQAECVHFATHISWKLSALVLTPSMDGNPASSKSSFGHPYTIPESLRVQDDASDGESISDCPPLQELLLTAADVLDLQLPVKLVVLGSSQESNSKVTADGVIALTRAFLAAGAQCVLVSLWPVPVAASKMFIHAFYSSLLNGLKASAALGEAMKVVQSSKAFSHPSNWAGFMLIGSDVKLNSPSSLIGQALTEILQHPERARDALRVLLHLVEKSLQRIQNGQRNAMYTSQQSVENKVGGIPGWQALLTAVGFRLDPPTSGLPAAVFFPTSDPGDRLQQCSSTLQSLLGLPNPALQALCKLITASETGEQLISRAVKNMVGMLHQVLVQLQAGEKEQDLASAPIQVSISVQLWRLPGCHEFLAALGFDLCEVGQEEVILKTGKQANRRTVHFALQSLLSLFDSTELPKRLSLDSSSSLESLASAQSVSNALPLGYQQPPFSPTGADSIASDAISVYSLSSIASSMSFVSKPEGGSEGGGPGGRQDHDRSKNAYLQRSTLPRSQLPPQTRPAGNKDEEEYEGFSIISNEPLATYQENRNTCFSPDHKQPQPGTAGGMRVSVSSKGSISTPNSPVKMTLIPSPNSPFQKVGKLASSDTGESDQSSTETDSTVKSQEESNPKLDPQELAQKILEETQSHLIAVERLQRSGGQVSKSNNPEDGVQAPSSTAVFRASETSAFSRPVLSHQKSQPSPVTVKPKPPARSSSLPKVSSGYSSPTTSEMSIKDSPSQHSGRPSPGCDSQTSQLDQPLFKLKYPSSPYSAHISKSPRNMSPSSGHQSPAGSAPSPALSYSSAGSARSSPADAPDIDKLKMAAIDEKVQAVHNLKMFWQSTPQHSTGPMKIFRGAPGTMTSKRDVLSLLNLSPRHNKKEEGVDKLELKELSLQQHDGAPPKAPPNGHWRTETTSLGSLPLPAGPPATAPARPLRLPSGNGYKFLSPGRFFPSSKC
UniProt O43734: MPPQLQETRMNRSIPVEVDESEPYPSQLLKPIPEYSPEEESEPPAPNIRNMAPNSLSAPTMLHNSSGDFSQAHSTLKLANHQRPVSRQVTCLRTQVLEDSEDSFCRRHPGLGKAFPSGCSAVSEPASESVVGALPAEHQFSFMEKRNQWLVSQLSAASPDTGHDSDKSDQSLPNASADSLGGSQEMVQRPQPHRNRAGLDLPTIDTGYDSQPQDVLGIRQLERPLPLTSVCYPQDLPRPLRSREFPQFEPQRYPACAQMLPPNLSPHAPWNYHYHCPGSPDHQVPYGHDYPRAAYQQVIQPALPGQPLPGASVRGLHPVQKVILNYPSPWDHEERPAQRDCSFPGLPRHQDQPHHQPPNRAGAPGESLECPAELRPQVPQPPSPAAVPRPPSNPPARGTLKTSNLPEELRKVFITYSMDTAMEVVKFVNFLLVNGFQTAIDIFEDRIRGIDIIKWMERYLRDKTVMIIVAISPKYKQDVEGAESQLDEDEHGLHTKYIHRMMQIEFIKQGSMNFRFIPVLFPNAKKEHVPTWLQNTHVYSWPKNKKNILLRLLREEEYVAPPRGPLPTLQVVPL
UniProt O60637: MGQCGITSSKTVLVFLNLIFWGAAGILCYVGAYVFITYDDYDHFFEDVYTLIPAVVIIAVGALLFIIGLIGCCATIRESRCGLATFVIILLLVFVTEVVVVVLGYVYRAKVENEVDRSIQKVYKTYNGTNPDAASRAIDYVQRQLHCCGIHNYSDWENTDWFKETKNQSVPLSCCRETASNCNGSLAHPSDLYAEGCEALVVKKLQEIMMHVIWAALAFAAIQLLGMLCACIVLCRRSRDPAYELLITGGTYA
UniProt Q9UJT2: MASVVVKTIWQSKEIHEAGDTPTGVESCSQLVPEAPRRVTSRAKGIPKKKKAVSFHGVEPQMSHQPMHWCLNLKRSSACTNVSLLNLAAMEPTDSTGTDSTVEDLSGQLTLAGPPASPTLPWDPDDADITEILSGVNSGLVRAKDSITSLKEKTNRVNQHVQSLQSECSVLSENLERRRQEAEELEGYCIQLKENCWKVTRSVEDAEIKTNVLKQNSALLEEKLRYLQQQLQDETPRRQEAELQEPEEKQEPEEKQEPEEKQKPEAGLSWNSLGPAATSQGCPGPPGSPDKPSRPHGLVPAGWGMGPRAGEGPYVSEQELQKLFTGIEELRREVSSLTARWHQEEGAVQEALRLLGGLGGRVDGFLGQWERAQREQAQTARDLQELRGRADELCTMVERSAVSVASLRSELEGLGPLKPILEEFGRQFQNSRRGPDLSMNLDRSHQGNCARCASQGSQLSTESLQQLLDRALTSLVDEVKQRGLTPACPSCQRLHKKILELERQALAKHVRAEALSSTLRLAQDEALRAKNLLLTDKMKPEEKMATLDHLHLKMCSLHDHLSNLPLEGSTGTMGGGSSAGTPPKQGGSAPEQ
UniProt P14373: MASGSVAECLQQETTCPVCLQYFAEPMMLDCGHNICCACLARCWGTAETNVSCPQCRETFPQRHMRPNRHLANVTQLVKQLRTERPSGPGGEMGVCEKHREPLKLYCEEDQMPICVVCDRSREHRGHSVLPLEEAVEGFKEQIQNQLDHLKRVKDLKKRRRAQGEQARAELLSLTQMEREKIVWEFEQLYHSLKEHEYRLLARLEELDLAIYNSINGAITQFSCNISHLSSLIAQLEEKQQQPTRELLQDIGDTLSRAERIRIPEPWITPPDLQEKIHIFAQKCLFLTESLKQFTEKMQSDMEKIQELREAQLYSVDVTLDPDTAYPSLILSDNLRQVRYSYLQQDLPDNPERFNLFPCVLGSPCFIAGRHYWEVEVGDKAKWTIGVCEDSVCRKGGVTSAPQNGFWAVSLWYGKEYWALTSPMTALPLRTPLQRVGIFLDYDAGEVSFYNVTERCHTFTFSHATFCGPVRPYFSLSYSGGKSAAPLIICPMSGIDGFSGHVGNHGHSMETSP
UniProt O95900: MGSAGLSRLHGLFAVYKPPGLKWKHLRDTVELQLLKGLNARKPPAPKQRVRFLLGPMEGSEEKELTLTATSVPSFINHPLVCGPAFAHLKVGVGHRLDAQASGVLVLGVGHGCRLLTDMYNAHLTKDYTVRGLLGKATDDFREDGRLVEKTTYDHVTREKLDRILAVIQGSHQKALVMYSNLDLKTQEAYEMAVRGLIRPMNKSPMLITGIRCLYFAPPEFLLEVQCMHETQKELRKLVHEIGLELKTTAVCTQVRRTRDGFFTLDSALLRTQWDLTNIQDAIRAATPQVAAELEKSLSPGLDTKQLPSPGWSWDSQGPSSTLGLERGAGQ
UniProt O75382: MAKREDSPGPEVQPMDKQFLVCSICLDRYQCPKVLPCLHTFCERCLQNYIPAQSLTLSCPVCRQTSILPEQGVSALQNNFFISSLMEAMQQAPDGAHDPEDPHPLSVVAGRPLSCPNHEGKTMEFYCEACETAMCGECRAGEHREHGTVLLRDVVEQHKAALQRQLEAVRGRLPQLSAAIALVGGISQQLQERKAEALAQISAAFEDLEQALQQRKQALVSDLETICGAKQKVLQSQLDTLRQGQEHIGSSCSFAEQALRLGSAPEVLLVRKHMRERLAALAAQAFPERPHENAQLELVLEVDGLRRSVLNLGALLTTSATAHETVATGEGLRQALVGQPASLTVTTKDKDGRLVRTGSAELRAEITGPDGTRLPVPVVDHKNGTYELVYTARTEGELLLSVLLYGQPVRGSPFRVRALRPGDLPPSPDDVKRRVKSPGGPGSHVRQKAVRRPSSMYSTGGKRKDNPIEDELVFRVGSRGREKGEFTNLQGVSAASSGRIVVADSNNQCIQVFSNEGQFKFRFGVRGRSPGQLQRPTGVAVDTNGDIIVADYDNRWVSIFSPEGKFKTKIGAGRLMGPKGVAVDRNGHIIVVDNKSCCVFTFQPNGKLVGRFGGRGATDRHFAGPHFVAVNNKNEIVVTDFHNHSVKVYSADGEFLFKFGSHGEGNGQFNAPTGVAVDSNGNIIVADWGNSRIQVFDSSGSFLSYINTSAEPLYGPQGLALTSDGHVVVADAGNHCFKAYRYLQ
UniProt Q8TDR0: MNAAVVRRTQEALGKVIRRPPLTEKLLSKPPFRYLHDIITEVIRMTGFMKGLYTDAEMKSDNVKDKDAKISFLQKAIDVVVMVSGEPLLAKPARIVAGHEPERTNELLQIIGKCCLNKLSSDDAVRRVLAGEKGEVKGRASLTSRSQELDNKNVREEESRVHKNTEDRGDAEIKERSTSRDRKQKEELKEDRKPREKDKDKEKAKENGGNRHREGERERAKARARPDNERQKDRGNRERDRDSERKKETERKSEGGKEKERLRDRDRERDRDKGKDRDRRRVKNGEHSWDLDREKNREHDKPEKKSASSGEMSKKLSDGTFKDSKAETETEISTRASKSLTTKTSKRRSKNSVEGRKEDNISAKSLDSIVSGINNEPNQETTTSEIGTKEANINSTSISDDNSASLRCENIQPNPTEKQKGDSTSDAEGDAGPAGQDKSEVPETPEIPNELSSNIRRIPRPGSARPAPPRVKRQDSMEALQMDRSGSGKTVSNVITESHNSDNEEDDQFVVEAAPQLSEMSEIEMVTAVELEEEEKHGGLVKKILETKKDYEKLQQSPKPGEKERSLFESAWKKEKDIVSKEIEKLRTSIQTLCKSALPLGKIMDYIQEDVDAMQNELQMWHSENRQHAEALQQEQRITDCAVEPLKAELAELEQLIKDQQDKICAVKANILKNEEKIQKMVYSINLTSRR
UniProt Q99576: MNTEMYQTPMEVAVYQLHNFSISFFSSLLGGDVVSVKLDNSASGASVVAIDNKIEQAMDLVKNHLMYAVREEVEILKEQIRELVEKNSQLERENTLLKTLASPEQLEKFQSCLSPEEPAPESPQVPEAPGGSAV

Compound: NCC(=O)Nc1ccc(-n2nc(C(F)(F)F)cc2-c2ccc3c(ccc4ccccc43)c2)cc1
Test: log2 fold change, soluble protein after heating vs DMSO (PISA); higher = thermal stabilisation; K562 lysate, 10 uM; active = over 0.2 and 3.5 SD of the protein, either way, in both replicates (recomputed)
Procedure, shortened: (§1)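 Thermal stability, expressed as log-two fold change relative to solvent controls, is given from duplicates. Crude K562 extract in PBS pH 7.4 with 1 mM MgCl2, at 1 mg/mL protein, was treated with 10 μM compound for 30 min and heated in aliquots for 3 min across 48°C-58°C. After pooling, adjustment to 0.5% NP-40 at 4°C and centrifugation at 21,000xg for 90 min, supernatant protein was measured by TMTpro 16plex LC-MS/MS with channel sums equalised.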

Row | Target | log2 fold change
1 | TTLL12 (UniProt V9GY16) | inactive: 0.115
2 | TSPAN4 (UniProt O14817) | inactive: 0.026
3 | TTC28 (UniProt Q96AY4) | inactive: -0.155
4 | TRAF3IP2 (UniProt O43734) | inactive: -0.283
5 | TTC13 (UniProt Q8NBP0) | inactive: 0.087
6 | TSPAN3 (UniProt O60637) | inactive: -0.124
7 | TRIM41 (UniProt Q8WV44) | inactive: 0.083
8 | TRMO (UniProt Q9BU70) | inactive: -0.014
9 | TSKS (UniProt Q9UJT2) | inactive: 0.037
10 | TRIM27 (UniProt P14373) | inactive: -0.136
11 | TRUB2 (UniProt O95900) | inactive: 0.147
12 | TTC30B (UniProt Q8N4P2) | inactive: 0.074
13 | TRIM3 (UniProt O75382) | inactive: -0.304
14 | TRAF3IP1 (UniProt Q8TDR0) | inactive: 0.089
15 | TRIOBP (UniProt Q9H2D6) | inactive: -0.081
16 | TTC21B (UniProt Q7Z4L5) | inactive: 0.141
17 | TSPAN31 (UniProt Q12999) | inactive: -0.037
18 | TSEN15, A0A2U3TZM3 | inactive: 0.046
19 | TTC39B (UniProt Q5VTQ0) | inactive: 0.508

Compound: O=C(CCCCCCC(=O)Nc1ccccc1)NO [vorinostat]
Test: as above
Procedure, shortened: as §1

Row | Target | log2 fold change
20 | TRPM4 (UniProt Q8TD43) | inactive: 0.161
21 | TSC22D3 isoform 3 (UniProt Q99576) | inactive: 0.023
22 | TRAF5 isoform 2 (UniProt O00463) | inactive: -0.099
23 | TTLL12 (UniProt V9GY16) | inactive: 0.076
24 | TSPAN4 (UniProt O14817) | inactive: -0.034
25 | TTC28 (UniProt Q96AY4) | inactive: -0.389
26 | TRAF3IP2 (UniProt O43734) | inactive: -0.49
27 | TTC3 (UniProt P53804) | inactive: -0.257
28 | TSPAN3 (UniProt O60637) | inactive: 0.105
29 | TRPS1 isoform 2 (UniProt Q9UHF7) | inactive: 0.002
30 | TRIQK (UniProt Q629K1) | inactive: -0.069
31 | TRIB3 (UniProt Q96RU7) | inactive: 0.085
32 | TSPYL6 (UniProt Q8N831) | inactive: -0.019
33 | TSKS (UniProt Q9UJT2) | inactive: -0.062
34 | TRIM27 (UniProt P14373) | inactive: -0.135
35 | TRIM67 (UniProt Q6ZTA4) | inactive: -0.094
36 | TTBK2 (UniProt Q6IQ55) | inactive: -0.081
37 | TRUB2 (UniProt O95900) | inactive: -0.024
38 | TRIM3 (UniProt O75382) | inactive: -0.055
39 | TRAF3IP1 (UniProt Q8TDR0) | inactive: 0.072
40 | TRIM16 (UniProt O95361) | inactive: -0.155
41 | TRIM68 (UniProt Q6AZZ1) | inactive: 0.101
42 | TRIOBP (UniProt Q9H2D6) | inactive: 0.002
43 | TTC21B (UniProt Q7Z4L5) | inactive: -0.14
44 | TRIM37 (UniProt O94972) | inactive: -0.175
45 | TTC39B (UniProt Q5VTQ0) | inactive: 0.125

Compound: O=C(O)c1ccc2c(c1)nc(Nc1cccc(Cl)c1)c1ccncc12 [silmitasertib]
Test: as above
Procedure, shortened: as §1

Row | Target | log2 fold change
46 | TRPM4 (UniProt Q8TD43) | inactive: -0.091
47 | TSC22D3 isoform 3 (UniProt Q99576) | inactive: -0.106
48 | TRAF5 isoform 2 (UniProt O00463) | inactive: -0.007
49 | TTLL12 (UniProt V9GY16) | inactive: -0.298
50 | TSPAN4 (UniProt O14817) | inactive: -0.007
51 | TTC28 (UniProt Q96AY4) | inactive: 0.127
52 | TRAF3IP2 (UniProt O43734) | inactive: 0.101
53 | TTC3 (UniProt P53804) | inactive: -0.074
54 | TSPAN3 (UniProt O60637) | inactive: -0.056
55 | TRPS1 isoform 2 (UniProt Q9UHF7) | inactive: -0.221
56 | TRIQK (UniProt Q629K1) | inactive: -0.047
57 | TRIB3 (UniProt Q96RU7) | inactive: 0.146
58 | TSPYL6 (UniProt Q8N831) | inactive: 0.007
59 | TSKS (UniProt Q9UJT2) | inactive: 0.041
60 | TRIM27 (UniProt P14373) | inactive: -0.102
61 | TRIM67 (UniProt Q6ZTA4) | inactive: -0.016
62 | TTBK2 (UniProt Q6IQ55) | inactive: 0.083
63 | TRUB2 (UniProt O95900) | inactive: 0.08
64 | TRIM3 (UniProt O75382) | inactive: -0.179
65 | TRAF3IP1 (UniProt Q8TDR0) | inactive: 0.105
66 | TRIM16 (UniProt O95361) | inactive: 0.037
67 | TRIM68 (UniProt Q6AZZ1) | inactive: -0.119
68 | TRIOBP (UniProt Q9H2D6) | inactive: 0.004
69 | TTC21B (UniProt Q7Z4L5) | inactive: -0.192
70 | TRIM37 (UniProt O94972) | inactive: 0.01
71 | TTC39B (UniProt Q5VTQ0) | inactive: 0.068
